Results from the supplement of paper PMC10849652.
The list shows a part of the results.

Chains of the proteins cited; added tags and fusions are not shown. Lines headed by an entry give the natural chain unless they say otherwise; changes in a name come on top.
UniProt Q96MW1: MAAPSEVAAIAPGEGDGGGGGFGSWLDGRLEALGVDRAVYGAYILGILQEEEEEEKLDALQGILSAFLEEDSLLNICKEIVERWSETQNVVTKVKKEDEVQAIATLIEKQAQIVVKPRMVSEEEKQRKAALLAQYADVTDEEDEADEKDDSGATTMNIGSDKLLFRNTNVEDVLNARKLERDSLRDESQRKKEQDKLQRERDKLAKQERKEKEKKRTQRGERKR
UniProt O60826, whole entry, looked up: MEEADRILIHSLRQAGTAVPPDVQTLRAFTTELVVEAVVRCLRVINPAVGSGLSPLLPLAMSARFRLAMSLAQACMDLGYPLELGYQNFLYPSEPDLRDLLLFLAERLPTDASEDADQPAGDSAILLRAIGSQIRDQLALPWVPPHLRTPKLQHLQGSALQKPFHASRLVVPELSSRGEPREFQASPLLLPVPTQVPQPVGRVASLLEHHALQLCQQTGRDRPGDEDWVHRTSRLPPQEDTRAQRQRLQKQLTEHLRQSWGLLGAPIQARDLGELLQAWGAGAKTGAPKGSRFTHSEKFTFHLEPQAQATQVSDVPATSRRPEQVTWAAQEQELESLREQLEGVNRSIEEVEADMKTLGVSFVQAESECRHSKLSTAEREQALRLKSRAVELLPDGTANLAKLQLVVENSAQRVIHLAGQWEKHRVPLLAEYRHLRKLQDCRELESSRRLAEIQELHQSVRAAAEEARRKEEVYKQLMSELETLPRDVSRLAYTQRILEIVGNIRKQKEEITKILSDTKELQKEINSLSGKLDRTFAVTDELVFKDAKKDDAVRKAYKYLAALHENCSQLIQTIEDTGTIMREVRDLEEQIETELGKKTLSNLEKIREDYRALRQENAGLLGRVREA
UniProt Q8WUD4: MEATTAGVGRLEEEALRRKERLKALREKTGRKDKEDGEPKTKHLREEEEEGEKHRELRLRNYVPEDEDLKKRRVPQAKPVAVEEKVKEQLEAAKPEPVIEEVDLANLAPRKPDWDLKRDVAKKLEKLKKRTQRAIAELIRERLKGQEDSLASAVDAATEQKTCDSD
UniProt Q9BSQ5: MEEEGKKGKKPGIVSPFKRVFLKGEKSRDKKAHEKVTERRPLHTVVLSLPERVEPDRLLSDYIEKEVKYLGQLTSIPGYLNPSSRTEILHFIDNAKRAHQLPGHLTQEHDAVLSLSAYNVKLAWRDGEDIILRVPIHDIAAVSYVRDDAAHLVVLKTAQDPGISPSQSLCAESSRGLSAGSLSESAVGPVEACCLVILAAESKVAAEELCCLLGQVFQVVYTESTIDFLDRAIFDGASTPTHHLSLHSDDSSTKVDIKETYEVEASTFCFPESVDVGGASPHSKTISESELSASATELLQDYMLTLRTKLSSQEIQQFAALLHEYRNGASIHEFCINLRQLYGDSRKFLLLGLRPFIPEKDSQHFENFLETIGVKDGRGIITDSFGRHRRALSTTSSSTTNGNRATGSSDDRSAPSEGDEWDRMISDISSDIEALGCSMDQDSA
UniProt Q8IWD4: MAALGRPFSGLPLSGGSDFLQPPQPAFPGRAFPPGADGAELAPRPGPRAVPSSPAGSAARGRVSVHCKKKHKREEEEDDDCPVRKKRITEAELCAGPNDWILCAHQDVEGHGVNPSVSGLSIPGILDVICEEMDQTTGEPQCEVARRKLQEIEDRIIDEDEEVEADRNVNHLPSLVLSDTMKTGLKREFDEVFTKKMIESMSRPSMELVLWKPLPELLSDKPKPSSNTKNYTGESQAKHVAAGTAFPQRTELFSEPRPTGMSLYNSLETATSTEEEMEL
UniProt Q6PII3: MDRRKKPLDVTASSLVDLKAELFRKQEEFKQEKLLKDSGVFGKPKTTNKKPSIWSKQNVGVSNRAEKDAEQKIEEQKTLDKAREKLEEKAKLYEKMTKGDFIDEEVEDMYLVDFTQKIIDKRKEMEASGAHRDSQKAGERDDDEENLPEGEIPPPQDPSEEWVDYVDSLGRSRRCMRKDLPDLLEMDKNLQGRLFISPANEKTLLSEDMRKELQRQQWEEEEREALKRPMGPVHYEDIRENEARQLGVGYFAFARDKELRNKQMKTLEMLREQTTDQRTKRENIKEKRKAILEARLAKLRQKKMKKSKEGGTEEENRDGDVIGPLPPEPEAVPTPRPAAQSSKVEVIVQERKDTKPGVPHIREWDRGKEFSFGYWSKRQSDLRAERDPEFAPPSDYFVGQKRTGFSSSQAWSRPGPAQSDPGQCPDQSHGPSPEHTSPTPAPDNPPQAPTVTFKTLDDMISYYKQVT
UniProt P20810: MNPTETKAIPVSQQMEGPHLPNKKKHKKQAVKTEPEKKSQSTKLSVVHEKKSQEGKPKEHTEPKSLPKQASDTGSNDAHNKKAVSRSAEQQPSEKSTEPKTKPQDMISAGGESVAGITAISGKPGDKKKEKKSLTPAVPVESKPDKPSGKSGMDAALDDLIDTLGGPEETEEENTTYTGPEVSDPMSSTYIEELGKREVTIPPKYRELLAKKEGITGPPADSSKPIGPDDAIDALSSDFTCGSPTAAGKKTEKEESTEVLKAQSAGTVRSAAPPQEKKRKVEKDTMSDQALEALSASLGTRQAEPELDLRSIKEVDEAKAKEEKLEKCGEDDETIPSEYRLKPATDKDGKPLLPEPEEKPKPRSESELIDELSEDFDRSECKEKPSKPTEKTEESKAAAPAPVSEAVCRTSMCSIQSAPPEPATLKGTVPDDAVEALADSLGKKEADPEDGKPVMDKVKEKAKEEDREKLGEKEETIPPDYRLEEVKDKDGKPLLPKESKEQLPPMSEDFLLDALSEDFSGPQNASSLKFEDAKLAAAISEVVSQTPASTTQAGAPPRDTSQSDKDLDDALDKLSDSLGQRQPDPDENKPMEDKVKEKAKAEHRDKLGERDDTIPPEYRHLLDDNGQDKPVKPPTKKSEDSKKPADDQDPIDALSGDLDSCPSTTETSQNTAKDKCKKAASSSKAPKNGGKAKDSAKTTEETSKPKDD
UniProt Q13951, whole entry, looked up: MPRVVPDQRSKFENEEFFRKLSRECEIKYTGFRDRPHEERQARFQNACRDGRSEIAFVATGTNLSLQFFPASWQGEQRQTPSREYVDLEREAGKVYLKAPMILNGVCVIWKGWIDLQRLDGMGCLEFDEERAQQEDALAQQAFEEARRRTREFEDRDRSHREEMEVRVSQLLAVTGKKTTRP
UniProt P42574: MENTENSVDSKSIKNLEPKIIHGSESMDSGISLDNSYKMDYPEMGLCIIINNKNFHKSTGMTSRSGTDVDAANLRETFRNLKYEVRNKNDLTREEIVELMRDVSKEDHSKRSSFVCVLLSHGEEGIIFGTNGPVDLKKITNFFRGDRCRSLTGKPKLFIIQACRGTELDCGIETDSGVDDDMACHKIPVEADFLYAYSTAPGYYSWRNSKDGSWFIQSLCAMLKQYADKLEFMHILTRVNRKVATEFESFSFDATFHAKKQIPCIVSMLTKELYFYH
UniProt Q7Z3E2: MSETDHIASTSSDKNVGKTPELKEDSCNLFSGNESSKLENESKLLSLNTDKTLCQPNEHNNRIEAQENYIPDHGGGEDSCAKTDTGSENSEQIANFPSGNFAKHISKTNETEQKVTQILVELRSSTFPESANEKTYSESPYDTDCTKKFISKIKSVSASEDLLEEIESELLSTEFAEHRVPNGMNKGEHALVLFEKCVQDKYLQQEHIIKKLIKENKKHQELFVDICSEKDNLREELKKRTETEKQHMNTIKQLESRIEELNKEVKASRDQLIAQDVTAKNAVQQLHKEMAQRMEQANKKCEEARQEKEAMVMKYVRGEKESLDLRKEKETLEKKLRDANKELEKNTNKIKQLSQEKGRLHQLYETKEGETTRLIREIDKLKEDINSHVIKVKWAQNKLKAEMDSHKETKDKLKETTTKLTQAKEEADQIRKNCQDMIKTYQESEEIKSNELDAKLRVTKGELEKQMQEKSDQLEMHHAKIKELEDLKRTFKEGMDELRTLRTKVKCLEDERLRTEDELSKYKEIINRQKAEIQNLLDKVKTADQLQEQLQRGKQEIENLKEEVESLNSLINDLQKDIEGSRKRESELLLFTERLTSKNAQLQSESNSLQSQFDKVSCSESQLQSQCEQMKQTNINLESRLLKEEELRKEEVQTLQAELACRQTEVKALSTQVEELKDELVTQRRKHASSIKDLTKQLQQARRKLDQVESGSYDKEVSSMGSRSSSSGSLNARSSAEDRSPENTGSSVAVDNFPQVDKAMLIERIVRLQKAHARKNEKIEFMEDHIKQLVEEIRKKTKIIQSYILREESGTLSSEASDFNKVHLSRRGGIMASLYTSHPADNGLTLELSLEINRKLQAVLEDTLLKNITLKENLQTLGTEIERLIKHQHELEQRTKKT
UniProt P48643, whole entry, looked up: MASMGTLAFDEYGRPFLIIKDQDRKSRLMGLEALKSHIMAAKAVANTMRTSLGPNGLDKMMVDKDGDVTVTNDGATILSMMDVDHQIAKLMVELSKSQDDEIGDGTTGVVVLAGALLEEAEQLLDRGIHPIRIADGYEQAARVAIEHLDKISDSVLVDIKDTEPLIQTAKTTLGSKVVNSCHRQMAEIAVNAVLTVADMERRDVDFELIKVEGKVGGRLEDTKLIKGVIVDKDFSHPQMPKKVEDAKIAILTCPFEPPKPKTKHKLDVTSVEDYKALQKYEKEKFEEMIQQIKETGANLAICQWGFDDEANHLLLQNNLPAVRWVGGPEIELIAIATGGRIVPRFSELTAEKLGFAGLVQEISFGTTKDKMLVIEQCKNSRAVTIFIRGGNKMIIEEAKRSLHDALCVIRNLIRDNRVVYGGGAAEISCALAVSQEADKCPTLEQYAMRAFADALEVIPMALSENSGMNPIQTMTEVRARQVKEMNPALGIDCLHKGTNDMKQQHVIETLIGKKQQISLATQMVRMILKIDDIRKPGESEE
UniProt Q96A33: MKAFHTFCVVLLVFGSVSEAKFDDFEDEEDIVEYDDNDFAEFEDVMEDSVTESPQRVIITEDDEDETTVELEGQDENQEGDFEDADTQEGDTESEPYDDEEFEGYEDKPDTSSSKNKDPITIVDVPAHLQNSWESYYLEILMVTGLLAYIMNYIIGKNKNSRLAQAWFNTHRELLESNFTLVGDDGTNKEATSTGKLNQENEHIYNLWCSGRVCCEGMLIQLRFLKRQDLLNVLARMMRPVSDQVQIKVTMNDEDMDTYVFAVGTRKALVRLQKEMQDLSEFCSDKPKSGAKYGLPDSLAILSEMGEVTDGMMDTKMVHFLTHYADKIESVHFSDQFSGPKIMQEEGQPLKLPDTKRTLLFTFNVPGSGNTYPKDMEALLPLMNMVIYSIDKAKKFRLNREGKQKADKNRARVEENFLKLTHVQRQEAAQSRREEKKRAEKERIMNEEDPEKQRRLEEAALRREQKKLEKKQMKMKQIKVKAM
UniProt Q8N4S0: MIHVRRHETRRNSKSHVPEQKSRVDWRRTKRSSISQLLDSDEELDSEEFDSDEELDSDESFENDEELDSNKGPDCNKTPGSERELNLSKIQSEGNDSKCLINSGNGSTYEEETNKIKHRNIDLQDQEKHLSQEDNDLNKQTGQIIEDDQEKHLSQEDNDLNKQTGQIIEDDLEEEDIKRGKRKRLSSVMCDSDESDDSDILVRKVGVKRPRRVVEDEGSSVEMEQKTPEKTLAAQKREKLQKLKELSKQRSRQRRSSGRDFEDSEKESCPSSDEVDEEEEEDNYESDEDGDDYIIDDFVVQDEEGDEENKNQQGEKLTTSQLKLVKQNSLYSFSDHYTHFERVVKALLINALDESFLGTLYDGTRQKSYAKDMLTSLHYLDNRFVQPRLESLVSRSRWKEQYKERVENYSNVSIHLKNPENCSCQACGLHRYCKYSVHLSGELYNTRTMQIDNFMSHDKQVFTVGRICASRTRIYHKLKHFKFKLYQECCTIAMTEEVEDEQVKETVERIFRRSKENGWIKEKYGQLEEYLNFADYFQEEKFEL
UniProt P48509: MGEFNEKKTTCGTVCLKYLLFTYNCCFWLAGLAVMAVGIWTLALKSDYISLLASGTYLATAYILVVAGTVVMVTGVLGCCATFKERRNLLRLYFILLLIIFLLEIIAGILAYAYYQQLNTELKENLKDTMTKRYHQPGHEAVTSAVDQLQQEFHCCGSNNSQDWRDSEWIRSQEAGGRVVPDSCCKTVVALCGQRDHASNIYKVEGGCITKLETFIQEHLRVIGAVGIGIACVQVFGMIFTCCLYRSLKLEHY
UniProt Q86WR0: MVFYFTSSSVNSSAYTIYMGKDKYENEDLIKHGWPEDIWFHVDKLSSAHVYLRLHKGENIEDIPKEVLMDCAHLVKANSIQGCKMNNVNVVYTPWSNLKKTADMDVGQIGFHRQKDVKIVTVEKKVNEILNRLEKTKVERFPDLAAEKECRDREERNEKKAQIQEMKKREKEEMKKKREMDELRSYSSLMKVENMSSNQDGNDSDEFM

Legend:
Assay in all cases: log2 fold change, soluble protein after heating vs DMSO (PISA); higher = thermal stabilisation; K562 lysate, 10 uM; active = over 0.2 and 3.5 SD of the protein, either way, in both replicates (recomputed)
lapatinib = compound: CS(=O)(=O)CCNCc1ccc(-c2ccc3ncnc(Nc4ccc(OCc5cccc(F)c5)c(Cl)c4)c3c2)o1 [lapatinib]
Procedure, shortened: (§1)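 To prepare the extract, K562 pellets were dounce-homogenised in PBS pH 7.4 with 1 mM MgCl2, giving crude material at 1 mg/mL protein. This was treated with 10 μM compound for 30 min, then heated in aliquots for 3 min over 48°C-58°C before pooling and addition of NP-40 to 0.5% at 4°C. Centrifugation at 21,000xg for 90 min left soluble protein in the supernatant, which TMTpro 16plex LC-MS/MS quantified with equalised channel sums. Results are log-two fold changes in thermal stability compared with solvent controls, from duplicates.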

pictilisib = compound: CS(=O)(=O)N1CCN(Cc2cc3nc(-c4cccc5[nH]ncc45)nc(N4CCOCC4)c3s2)CC1 [pictilisib]
Procedure, shortened: as §1

crizotinib = compound: C[C@@H](Oc1cc(-c2cnn(C3CCNCC3)c2)cnc1N)c1c(Cl)ccc(F)c1Cl [crizotinib]
Procedure, shortened: as §1

[1] = compound: C[C@H](C1=CC=C(C=C1)C(=O)NC2=C3C=CNC3=NC=C2)N
Procedure, shortened: as §1

duvelisib = compound: C[C@H](Nc1ncnc2nc[nH]c12)c1cc2cccc(Cl)c2c(=O)n1-c1ccccc1 [duvelisib]
Procedure, shortened: as §1

gandotinib = compound: Cc1cc(Nc2cc(CN3CCOCC3)c3nc(C)c(Cc4ccc(Cl)cc4F)n3n2)n[nH]1 [gandotinib]
Procedure, shortened: as §1

tozasertib = compound: Cc1cc(Nc2cc(N3CCN(C)CC3)nc(Sc3ccc(NC(=O)C4CC4)cc3)n2)n[nH]1 [tozasertib]
Procedure, shortened: as §1

doramapimod = compound: Cc1ccc(-n2nc(C(C)(C)C)cc2NC(=O)Nc2ccc(OCCN3CCOCC3)c3ccccc23)cc1 [doramapimod]
Procedure, shortened: as §1

bafetinib = compound: Cc1ccc(NC(=O)c2ccc(CN3CC[C@H](N(C)C)C3)c(C(F)(F)F)c2)cc1Nc1nccc(-c2cncnc2)n1 [bafetinib]
Procedure, shortened: as §1

[2] = compound: Cc1cccc(CC(=O)N2CCc3c2ccc(-c2cn(C)c4ncnc(N)c24)c3F)n1
Procedure, shortened: as §1

nilotinib = compound: Cc1cn(-c2cc(NC(=O)c3ccc(C)c(Nc4nccc(-c5cccnc5)n4)c3)cc(C(F)(F)F)c2)cn1 [nilotinib]
Procedure, shortened: as §1

[3] = compound: Cc1nc(Nc2n[nH]c3c2CN(C(=O)N[C@H](CN(C)C)c2ccccc2)C3(C)C)c2sccc2n1
Procedure, shortened: as §1

dasatinib = compound: Cc1nc(Nc2ncc(C(=O)Nc3c(C)cccc3Cl)s2)cc(N2CCN(CCO)CC2)n1 [dasatinib]
Procedure, shortened: as §1

[4] = compound: Cc1ncc(-c2ccnc(Nc3ccc(S(C)(=O)=O)cc3)n2)n1C(C)C
Procedure, shortened: as §1

[5] = compound: Cn1cc(-c2ccc3c(c2)CCN3C(=O)Cc2cccc(C(F)(F)F)c2)c2c(N)ncnc21
Procedure, shortened: as §1

quisinostat = compound: Cn1cc(CNCC2CCN(c3ncc(C(=O)NO)cn3)CC2)c2ccccc21 [quisinostat]
Procedure, shortened: as §1

tipifarnib = compound: Cn1cncc1[C@@](N)(c1ccc(Cl)cc1)c1ccc2c(c1)c(-c1cccc(Cl)c1)cc(=O)n2C [tipifarnib]
Procedure, shortened: as §1

[6] = compound: NC(=O)Nc1cc(-c2cccc(F)c2)sc1C(=O)N[C@H]1CCCNC1
Procedure, shortened: as §1

[7] = compound: NC(=O)c1cnc(N[C@@H]2CCCC[C@@H]2N)nc1Nc1cccc(-n2nccn2)c1
Procedure, shortened: as §1

[8] = compound: NC1(c2ccc(-c3nc4ccn5c(=O)[nH]nc5c4cc3-c3ccccc3)cc2)CCC1
Procedure, shortened: as §1

Measured: log2 fold change

CCDC43 (UniProt Q96MW1)
inactive: lapatinib 0.012 | pictilisib -0.004 | crizotinib 0.027 | [1] -0.027 | duvelisib 0.007 | gandotinib 0.02 | tozasertib 0.024 | doramapimod 0.063 | bafetinib 0.008 | [2] 0.045 | nilotinib -0.019 | [3] 0.027 | dasatinib -0.044 | [4] -0.026 | [5] 0.018 | quisinostat -0.026 | tipifarnib 0.023 | [6] -0.032 | [7] 0.005 | [8] 0

CCDC22 (UniProt O60826)
inactive: lapatinib -0.002 | pictilisib -0.017 | crizotinib -0.036 | [1] -0.014 | duvelisib -0.016 | gandotinib -0.056 | tozasertib 0.03 | doramapimod 0.023 | bafetinib -0.035 | [2] -0.005 | nilotinib 0.007 | [3] -0.018 | dasatinib -0.055 | [4] -0.005 | [5] -0.006 | quisinostat -0.006 | tipifarnib 0.012 | [6] 0.041 | [7] 0.025 | [8] -0.017

CCDC12 (UniProt Q8WUD4)
inactive: lapatinib 0.03 | pictilisib 0.053 | crizotinib 0.019 | [1] 0.101 | duvelisib 0.008 | gandotinib 0.008 | tozasertib 0.001 | doramapimod -0.011 | bafetinib 0.075 | [2] -0.04 | nilotinib -0.024 | [3] 0.03 | dasatinib 0.085 | [4] 0.063 | [5] 0.001 | quisinostat -0.016 | tipifarnib -0.024 | [6] -0.053 | [7] 0.006 | [8] -0.012

CCM2 isoform 2 (UniProt Q9BSQ5)
inactive: lapatinib -0.014 | pictilisib 0.017 | crizotinib 0.014 | [1] -0.068 | duvelisib 0.002 | gandotinib 0.042 | tozasertib 0.001 | doramapimod 0.055 | bafetinib -0.067 | [2] 0.027 | nilotinib -0.041 | [3] -0.026 | dasatinib 0.022 | [4] -0.051 | [5] 0.024 | quisinostat -0.082 | tipifarnib -0.038 | [6] 0.047 | [7] 0.002 | [8] 0.052

CCDC117 (UniProt Q8IWD4)
inactive: lapatinib 0.011 | pictilisib 0.016 | crizotinib -0.101 | [1] -0.005 | duvelisib -0.006 | gandotinib -0.003 | tozasertib -0.009 | doramapimod 0.041 | bafetinib 0.032 | [2] -0.02 | nilotinib -0.071 | [3] 0.032 | dasatinib 0.088 | [4] 0.024 | [5] 0.011 | quisinostat -0.143 | tipifarnib 0.006 | [6] 0.009 | [7] -0.017 | [8] -0.01

CCDC174 (UniProt Q6PII3)
inactive: lapatinib 0.059 | pictilisib -0.007 | crizotinib 0.051 | [1] -0.021 | duvelisib -0.004 | gandotinib 0.043 | tozasertib -0.024 | doramapimod 0.014 | bafetinib 0.039 | [2] -0.065 | nilotinib -0.024 | [3] 0.035 | dasatinib 0.012 | [4] -0.037 | [5] -0.034 | quisinostat -0.051 | tipifarnib -0.026 | [6] -0.005 | [7] -0.001 | [8] 0.022

Two records drawn at random from the list so far, as already listed:
CCDC12 (UniProt Q8WUD4)
inactive: lapatinib 0.03 | pictilisib 0.053 | crizotinib 0.019 | [1] 0.101 | duvelisib 0.008 | gandotinib 0.008 | tozasertib 0.001 | doramapimod -0.011 | bafetinib 0.075 | [2] -0.04 | nilotinib -0.024 | [3] 0.03 | dasatinib 0.085 | [4] 0.063 | [5] 0.001 | quisinostat -0.016 | tipifarnib -0.024 | [6] -0.053 | [7] 0.006 | [8] -0.012

CCM2 isoform 2 (UniProt Q9BSQ5)
inactive: lapatinib -0.014 | pictilisib 0.017 | crizotinib 0.014 | [1] -0.068 | duvelisib 0.002 | gandotinib 0.042 | tozasertib 0.001 | doramapimod 0.055 | bafetinib -0.067 | [2] 0.027 | nilotinib -0.041 | [3] -0.026 | dasatinib 0.022 | [4] -0.051 | [5] 0.024 | quisinostat -0.082 | tipifarnib -0.038 | [6] 0.047 | [7] 0.002 | [8] 0.052

Further entries

CBX4 (UniProt O00257)
inactive: lapatinib 0.013 | pictilisib -0.247 | crizotinib -0.055 | [1] 0.123 | duvelisib 0.038 | gandotinib 0.04 | tozasertib -0.119 | doramapimod 0.064 | bafetinib -0.269 | [2] 0.059 | nilotinib -0.06 | [3] 0.206 | dasatinib -0.04 | [4] 0.041 | [5] 0.022 | quisinostat -0.075 | tipifarnib 0.02 | [6] 0.002 | [7] 0.01 | [8] -0.074

CAST isoform 6 (UniProt P20810)
inactive: lapatinib 0.031 | pictilisib 0.011 | crizotinib 0.028 | [1] 0.002 | duvelisib 0.014 | gandotinib 0.029 | tozasertib -0.011 | doramapimod -0.057 | bafetinib 0.031 | [2] -0.016 | nilotinib 0.007 | [3] 0.028 | dasatinib 0.049 | [4] 0.007 | [5] -0.03 | quisinostat 0.033 | tipifarnib -0.028 | [6] -0.038 | [7] -0.02 | [8] 0.001

CBFB isoform 2 (UniProt Q13951)
inactive: lapatinib -0.014 | pictilisib 0.003 | crizotinib 0.098 | [1] -0.112 | duvelisib -0.002 | gandotinib 0.082 | tozasertib 0.062 | doramapimod 0.012 | bafetinib 0.051 | [2] 0.094 | nilotinib 0.009 | [3] 0.036 | dasatinib -0.01 | [4] 0.062 | [5] 0.019 | quisinostat 0.073 | tipifarnib -0.007 | [6] -0.001 | [7] 0.004 | [8] 0.037

CASP3 (UniProt P42574)
inactive: lapatinib 0.013 | pictilisib -0.021 | crizotinib 0.001 | duvelisib 0.007 | gandotinib -0.084 | tozasertib -0.016 | doramapimod 0.005 | bafetinib 0.107 | [2] -0.089 | nilotinib 0.032 | [3] -0.024 | dasatinib 0.053 | [4] 0.023 | [5] 0.008 | quisinostat -0.029 | tipifarnib -0.033 | [6] 0 | [7] -0.01 | [8] 0.022
active: [1] 0.249

CCDC186 (UniProt Q7Z3E2)
inactive: lapatinib -0.056 | pictilisib -0.004 | crizotinib 0.006 | duvelisib 0.022 | gandotinib -0.061 | tozasertib 0 | doramapimod -0.01 | bafetinib -0.047 | [2] -0.064 | nilotinib -0.046 | [3] -0.056 | dasatinib -0.014 | [4] 0.03 | [5] 0.043 | quisinostat -0.03 | tipifarnib -0.01 | [6] 0.033 | [7] -0.017 | [8] 0.001
active: [1] 0.295

CCT5 (UniProt P48643)
inactive: lapatinib -0.005 | pictilisib 0.009 | crizotinib 0.018 | [1] -0.019 | duvelisib 0.02 | gandotinib -0.011 | tozasertib 0.036 | doramapimod 0.026 | bafetinib 0.026 | [2] 0.003 | nilotinib 0.001 | [3] 0.001 | dasatinib 0.006 | [4] -0.002 | [5] 0.012 | quisinostat 0.038 | tipifarnib 0.023 | [6] -0.024 | [7] -0.01 | [8] 0.017

CCDC47 (UniProt Q96A33)
inactive: lapatinib -0.05 | pictilisib 0.005 | crizotinib -0.016 | [1] -0.012 | duvelisib -0.03 | gandotinib -0.145 | tozasertib -0.009 | doramapimod -0.018 | bafetinib -0.031 | [2] 0.049 | nilotinib -0.012 | [3] -0.009 | dasatinib -0.016 | [4] 0.025 | [5] -0.009 | quisinostat 0.006 | tipifarnib -0.025 | [6] 0.014 | [7] 0.019 | [8] -0.023

CCDC82 (UniProt Q8N4S0)
inactive: lapatinib 0.078 | pictilisib -0.031 | crizotinib -0.035 | [1] -0.029 | duvelisib -0.005 | gandotinib -0.054 | tozasertib -0.019 | doramapimod -0.072 | bafetinib 0.053 | [2] 0.005 | nilotinib -0.017 | [3] 0.052 | dasatinib 0.051 | [4] 0.027 | [5] 0.075 | quisinostat -0.005 | tipifarnib -0.074 | [6] -0.012 | [7] 0.117 | [8] -0.105

CD151 (UniProt P48509)
inactive: lapatinib 0.008 | pictilisib -0.023 | crizotinib -0.01 | [1] -0.272 | duvelisib 0.022 | gandotinib 0.052 | tozasertib -0.113 | doramapimod -0.027 | bafetinib 0.055 | [2] 0.095 | nilotinib -0.1 | [3] -0.05 | dasatinib 0.03 | [4] -0.214 | [5] 0.009 | quisinostat -0.26 | tipifarnib -0.011 | [6] 0.015 | [7] 0.021 | [8] -0.019

CCDC25 (UniProt Q86WR0)
inactive: lapatinib -0.028 | pictilisib -0.001 | crizotinib -0.015 | duvelisib 0.011 | gandotinib -0.062 | tozasertib -0.021 | doramapimod 0.065 | bafetinib 0.008 | [2] -0.095 | nilotinib 0.016 | [3] -0.023 | dasatinib -0.043 | [4] -0.021 | [5] -0.013 | quisinostat -0.039 | tipifarnib 0.002 | [6] 0 | [7] 0.024 | [8] -0.031
active: [1] 0.487
